According to patent CN112390885A:
These are yes or no findings as the source states them, for the method shown. Some entries that bind do so weakly or less than the wild type.

Amino acid sequences for entries named in this document (tags omitted). A change or cut given only in a name is not applied to a line headed by its entry.
UniProt P09758: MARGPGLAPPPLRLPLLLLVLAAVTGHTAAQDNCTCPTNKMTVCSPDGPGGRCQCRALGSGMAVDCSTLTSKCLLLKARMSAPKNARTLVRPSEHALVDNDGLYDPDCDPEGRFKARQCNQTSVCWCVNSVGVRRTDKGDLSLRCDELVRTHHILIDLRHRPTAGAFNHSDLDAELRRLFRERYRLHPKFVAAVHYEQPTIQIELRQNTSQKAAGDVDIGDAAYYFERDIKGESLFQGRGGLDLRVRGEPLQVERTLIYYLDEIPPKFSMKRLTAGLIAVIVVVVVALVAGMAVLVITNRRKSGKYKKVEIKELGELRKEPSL

What was measured:
[1] = target: 人源TROP2, full length, on transfected cells (CHOK1-hTROP2 2B2; 293F-TROP2 6F6) (human) (UniProt P09758); assay: FACS on CHOK1-hTROP2 cells
[2] = target: 人源TROP2-hFc蛋白 (免疫原A; human TROP2 Thr88-Thr274 with human IgG Fc tag) (human) (UniProt P09758); assay: ELISA, hTROP2-hFc coated at 1.0 μg/mL
[3] = target: 食蟹猴TROP2, full length, on CHOK1 cells (CHOK1-cTROP2 2B2C2) (cynomolgus monkey); assay: FACS on CHOK1-cTROP2 cells

- binding [1]: binds
- binding [2]: binds
- binding [3]: binds
B1: TROP2抗体 10E12C10F10 (antibody, V domains shown)
VH: QVRLVDSGGGVVQPGRSLRLSCAASGFTFSSYGIHWVRQAPGKGLEWVAVIWYDGNHKFYADSVKGRFTISRDNSKNTLYLQMNSLRAEDTAVYYCARGGILGGYADYWGQGTLVTVSS
VL: DVVMTQTPLSLPVSLGDQASISCRSSQSLVHSYGNTYLHWYLQKPGQSPKLLIYKVSNRFSGVPDRFSGSGSGTDFTLKISRVEAEDLGVYFCSQSTHVPTFGGGTKLEIK
